The values below come from US20080003199A1.

Assay [1] addresses T1, mouse ST2-Fc (R&D) (mouse) (UniProt P14719).
T1 sequence (looked up): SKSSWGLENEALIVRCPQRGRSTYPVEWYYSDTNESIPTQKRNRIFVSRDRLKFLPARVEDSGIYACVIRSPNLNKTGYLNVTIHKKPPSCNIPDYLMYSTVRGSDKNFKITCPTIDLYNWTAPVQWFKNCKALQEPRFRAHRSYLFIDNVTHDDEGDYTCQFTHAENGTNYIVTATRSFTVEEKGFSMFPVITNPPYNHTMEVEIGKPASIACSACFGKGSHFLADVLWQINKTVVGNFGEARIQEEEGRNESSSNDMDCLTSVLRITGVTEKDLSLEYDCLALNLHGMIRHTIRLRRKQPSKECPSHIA
The experiment in a line: pull-down of recombinant IL-33 with mouse ST2-Fc protein (FIG. 11D).

Assay [2] deals with T1, mouse ST2-Fc (R&D) (mouse). The experiment in a line: pull-down of His-tagged IL-33 with mouse ST2-Fc, Ni-NTA beads, anti-HisG Western.

Results are given in words; binding and its absence hold for the method and conditions named. In cells and extracts the contact can be indirect. Some binding calls cover weakened binding; strength is not graded here. Sequences can lack the tags named with a protein.

B1: recombinant mature rat IL-33 with N-terminal His-tag (ligand, UniProt Q66H70 109-264, looked up, not shown: small tags and cut ends)
chain: SIQGTSLLTESCALSTYNDQSVSFVLENGCYVINVEDCGKNQEKDKVLLRYYESSFPAQSGDGVDGKKLMVNMSPIKDTDIWLNANDKDYSVELQKGDVSPPDQAFFVLHKKSSDFVSFECKNLPGTYIGVKDNQLALVEENDESCNNIMFKLSKM
For the molecule B1, the binding result in assay [1] and in assay [2] was “binds” throughout.
